Results are given in words; binding and its absence hold for the method and conditions named. Some entries that bind do so weakly or less than the wild type.
Assays:
[1] = biological target: Monkey CD40 (Rhesus monkey) (Rhesus monkey) (UniProt F6SNI1); experiment: flow cytometry on Monkey CD40-CHO cells (figure legend)
[2] = biological target: human CD40 expressed on human B cell lines (Raji, Ramos) (human) (UniProt P25942); experiment: western blot of Raji cell lysate
[3] = biological target: human CD40 antigen (human) (UniProt P25942); experiment: ELISA, 100 ng human CD40 antigen coated per well, antibody 50 to 0.000282 µg/ml
[4] = biological target: human CD40 expressed on human B cell lines (Raji, Ramos) (human) (UniProt P25942); experiment: flow cytometry on Raji cells, RM8G-1 at 0.5 µg/ml
[5] = biological target: human CD40 expressed on human B cell lines (Raji, Ramos) (human) (UniProt P25942); experiment: flow cytometry on Raji cells (figure legend)
[6] = biological target: T1, … region of human CD40 (peptide microarray) (human); experiment: peptide microarray, RM8G-1 at 1, 10 and 100 µg/ml
T1 sequence (peptide): ECLPCGESEF

By UniProt entry, the sequences of proteins in these tests, tags left out. Where a name states a change or a piece, a line headed by the entry shows the natural chain unless it says otherwise. Chains listed by the source or under a name are the forms on record and can include a tag or linker. Residues count along the entry.
Monkey CD40 (Rhesus monkey) (F6SNI1, form named): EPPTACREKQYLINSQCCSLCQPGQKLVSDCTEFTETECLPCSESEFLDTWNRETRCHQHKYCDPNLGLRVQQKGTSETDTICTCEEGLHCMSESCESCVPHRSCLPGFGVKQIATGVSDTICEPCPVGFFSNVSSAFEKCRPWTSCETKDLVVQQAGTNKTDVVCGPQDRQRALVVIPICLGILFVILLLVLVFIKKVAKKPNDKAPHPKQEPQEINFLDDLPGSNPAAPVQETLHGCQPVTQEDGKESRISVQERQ
UniProt P25942: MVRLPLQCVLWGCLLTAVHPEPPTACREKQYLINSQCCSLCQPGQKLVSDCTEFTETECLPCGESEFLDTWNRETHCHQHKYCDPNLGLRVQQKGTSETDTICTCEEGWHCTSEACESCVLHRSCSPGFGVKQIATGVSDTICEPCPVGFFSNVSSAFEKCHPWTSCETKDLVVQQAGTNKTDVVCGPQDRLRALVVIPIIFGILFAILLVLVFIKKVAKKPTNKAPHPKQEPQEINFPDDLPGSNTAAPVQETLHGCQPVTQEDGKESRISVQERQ
human CD40 expressed on human B cell lines (Raji, Ramos): residues 21-277 of P25942
human CD40 antigen: residues 21-193 of P25942

[7] = biological target: Monkey CD40 (Rhesus monkey) (Rhesus monkey) (UniProt F6SNI1); experiment: flow cytometry on Monkey CD40-CHO cells, RM8G-1 at 0.5 µg/ml
[8] = biological target: human CD40 expressed on human B cell lines (Raji, Ramos) (human) (UniProt P25942); experiment: western blot of Raji cell lysate (figure legend)
[9] = biological target: human CD40 antigen (human) (UniProt P25942); experiment: ELISA on coated human CD40 antigen (figure legend)

binding [1]: binds
binding [2]: binds
binding [3]: binds
binding [4]: binds
binding [5]: binds
binding [6]: binds
binding [7]: binds
binding [8]: binds
binding [9]: binds
B1: anti-CD40 antibody RM8G-1 (antibody, V domains shown)
VH: LVQLKESGPGLVAPSQSLSITCTVSGFSLTDYGVGWIRQPPGKDLEWLGVMWGGGRTYYNAPLKSRLSISKDNSKSQVFLKMNSLQTDDTAMYYCVKTGQDYAVDYWGQGTSVTVSS
VL: DIVLTQSPASLAVSLGQRATISCRASKSVSTSAYSYMHWYQQKPGQPPKLLIYLASNLESGVPARFSGSGSGTDFTLNIHPVEEEDAATYYCQHSWDLPYTFGGGTKLEIK
notes: Mouse monoclonal antibody from hybridoma RM8G1 (KCLRF-BP-00336); also called RM RM8G-1; anti-CD40 RM8G-1

From US20200291123A1 (PB IMMUNE THERAPEUTICS, published 2020)
